Measured values published in the supplement of paper PMC3682954.
Where “and” joins values, the source holds several entries; their conditions need not be identical. Equal entries are not always repeated. Structures can show the parent of a compound that is named as a salt. ± gives the standard deviation of the averaged measurements. This is one part of the list. Many values rest on one well or one pass, so single values are uncertain.

System: RAW 264.7
Assay: HMGB1-induced TNF-alpha production relative to HMGB1-stimulated control; higher = more TNF-alpha secretion (less inhibition)
Conditions: stimulus: HMGB1 5 ug/ml, 18 h
[1] = compound concentration: 1 ug/ml

SMILES	HMGB1-induced TNF-alpha production (compound concentration: 3 uM)	HMGB1-induced TNF-alpha production [1] [%]
N#CC(C#N)=C(N)/C(C#N)=C/c1cc(O)c(O)c(O)c1 [Tyrphostin 51]	97.6%	–
CO/N=C(\C(=O)N[C@@H]1C(=O)N2C(C(=O)OC(C)OC(C)=O)=C(COC(N)=O)CS[C@H]12)c1ccco1 (some centres not stated)	83.4%	–
CCN(CC)CCCCCCCCOC(=O)c1cc(OC)c(OC)c(OC)c1 [TMB-8 hydrochloride]	80.8%	–
CC1=C(C2=C(C)C(C(C)C)C3=C(C(=O)C(O)C3O)C2O)C(O)C2=C(C(O)C(O)C2=O)C1C(C)C (configuration not stated)	–	91.3
Cn1ccc2cc3c(cc21)CCN3C(=O)Nc1cccnc1	106%	–
O=C(O)CP(=O)(O)O [Phosphonoacetic acid]	122%	–
COC(=O)C1=CO[C@@H](O)[C@@H]2C(CO)=CC[C@H]12 [Genipin]	80.2%	72.5
CCCOc1ccccc1-c1nc2[nH]nnc2c(=O)[nH]1	79.7%	–
CCCOc1ccccc1-c1nc2[nH]nnc2c(=O)[nH]1 [Zaprinast]	90.3 ± 22%	–
CCC[C@@H]1C[C@@H](C(=O)N[C@@H]([C@H]2O[C@H](SC)[C@H](OP(=O)(O)O)[C@@H](O)[C@H]2O)[C@H](C)Cl)N(C)C1 [clindamycin 2-phosphate]	–	73.6
CCC[C@@H]1C[C@@H](C(=O)N[C@@H]([C@H]2O[C@H](SC)[C@H](OP(=O)(O)O)[C@@H](O)[C@H]2O)[C@H](C)Cl)N(C)C1 [Clindamycin Phosphate]	112%	–
CCCCCCNC(=O)n1cc(F)c(=O)[nH]c1=O	96.8 ± 17%	–
Nc1nc(=O)n([C@@H]2CS[C@H](CO)O2)cc1F [Emtricitabine]	90.5%	–
COc1ccc(Cl)cc1C(=O)NCCc1ccc(S(=O)(=O)NC(=O)NC2CCCCC2)cc1 [Glybenclamide]	62.4%	–
COc1ccc(Cl)cc1C(=O)NCCc1ccc(S(=O)(=O)NC(=O)NC2CCCCC2)cc1 [Glibenclamide]	80.6%	–
COc1ccc(Cl)cc1C(=O)NCCc1ccc(S(=O)(=O)NC(=O)NC2CCCCC2)cc1 [Glyburide]	89.3%	–
COc1ccc(Cl)cc1C(=O)NCCc1ccc(S(=O)(=O)NC(=O)NC2CCCCC2)cc1	87.4%	–
CC(C)=CCC1=C(O)C(=O)c2ccccc2C1=O	81.6%	–
COc1cc(SC)ccc1C(=O)N1CCC(Cc2ccccc2)CC1	96.8%	–
CC#C[C@]1(O)CC[C@H]2[C@@H]3CCC4=CC(=O)CCC4=C3[C@@H](c3ccc(N(C)C)cc3)C[C@@]21C	101%	–
CC#C[C@]1(O)CC[C@H]2[C@@H]3CCC4=CC(=O)CCC4=C3[C@@H](c3ccc(N(C)C)cc3)C[C@@]21C [Mifepristone]	81.2 ± 22%	–

SMILES	HMGB1-induced TNF-alpha production (compound concentration: 3 uM)	HMGB1-induced TNF-alpha production [1] [%]
CCCn1c(=O)c(C)cn2nc(N)nc12	86.7%	–
NC(C(=O)O)C(O)C(=O)O (racemic) [DL-threo-beta-hydroxyaspartic acid]	77.9%	–
O=C(O)C1=CC(=C(c2ccc(O)c(C(=O)O)c2)c2ccc(O)c(C(=O)O)c2)C=CC1=O [Aurintricarboxylic acid]	109%	–
C[C@@H]1C/C=C/C=C/C=C/C=C/[C@H](O[C@@H]2O[C@H](C)[C@@H](O)[C@H](N)[C@@H]2O)C[C@@H]2O[C@](O)(C[C@@H](O)C[C@H]3O[C@@H]3/C=C/C(=O)O1)C[C@H](O)[C@H]2C(=O)O	88.1%	–
CC(C(O)c1ccc(O)cc1)N1CCC(Cc2ccccc2)CC1 (configuration not stated) [Ifenprodil tartrate]	91.3 ± 8.7%	–
CC(C(O)c1ccc(O)cc1)N1CCC(Cc2ccccc2)CC1 (configuration not stated) [Ifenprodil]	96.3 ± 14%	–
CC(C(O)c1ccc(O)cc1)N1CCC(Cc2ccccc2)CC1 (configuration not stated)	84.1%	–
O=c1ccn([C@@H]2O[C@H](COP(=O)(O)OP(=O)(O)O)[C@@H](O)[C@H]2O)c(=O)[nH]1 [Uridine 5'-diphosphate sodium]	100%	–
CC(C)[C@H](N)C(=O)OCCOCn1cnc2c(=O)nc(N)[nH]c21	113% and 89.1%	–
CC(C)[C@H](N)C(=O)OCCOCn1cnc2c(=O)nc(N)[nH]c21 [Valaciclovir]	80.7%	–
CN1CCN2c3ncccc3Cc3ccccc3C2C1 (configuration not stated)	100%	–
CN1CCN2c3ncccc3Cc3ccccc3C2C1 (configuration not stated) [Mirtazapine]	79.1%	–
Cn1cc(C(F)(F)F)nc1-c1ccc(OCC(O)CNCCOc2ccc(O)c(C(N)=O)c2)cc1 (configuration not stated)	81%	–
CN(C(=O)CN(CCO)CC(=O)N(C)C(C)(C)Cc1ccccc1)C(C)(C)Cc1ccccc1	75.9%	–
CN(C(=O)CN(CCO)CC(=O)N(C)C(C)(C)Cc1ccccc1)C(C)(C)Cc1ccccc1 [Oxethazaine]	56.5%	–
COC(=O)N/N=C/c1c[n+]([O-])c2ccccc2[n+]1[O-] [Carbadox]	107 ± 7.2%	–
COC(=O)N/N=C/c1c[n+]([O-])c2ccccc2[n+]1[O-]	99.5%	–
CC1(C)O[C@@H]2C[C@H]3[C@@H]4C[C@H](F)C5=CC(=O)C=C[C@]5(C)[C@@]4(F)[C@@H](O)C[C@]3(C)[C@]2(C(=O)CO)O1 [Fluocinolone acetonide]	45.5 ± 0.98%	–
CC1(C)O[C@@H]2C[C@H]3[C@@H]4C[C@H](F)C5=CC(=O)C=C[C@]5(C)[C@@]4(F)[C@@H](O)C[C@]3(C)[C@]2(C(=O)CO)O1	35.2%	–
COc1cc(NS(=O)(=O)c2ccc(N)cc2)ncn1 [Sulfamonomethoxine]	128%	–
COc1cc(NS(=O)(=O)c2ccc(N)cc2)ncn1	81.7%	–

Record cards, as listed above.
COc1ccc(Cl)cc1C(=O)NCCc1ccc(S(=O)(=O)NC(=O)NC2CCCCC2)cc1 reads HMGB1-induced TNF-alpha production (compound concentration: 3 uM): 87.4%
COc1ccc(Cl)cc1C(=O)NCCc1ccc(S(=O)(=O)NC(=O)NC2CCCCC2)cc1 [Glibenclamide] reads HMGB1-induced TNF-alpha production (compound concentration: 3 uM): 80.6%

(list continues)

SMILES	HMGB1-induced TNF-alpha production (compound concentration: 3 uM)	HMGB1-induced TNF-alpha production [1] [%]
Cc1cc(C)nc(NS(=O)(=O)c2ccc(N)cc2)n1 [Sulfamethazine sodium salt]	86.1%	–
Cc1cc(C)nc(NS(=O)(=O)c2ccc(N)cc2)n1	92.3%	–
C=C/C(C)=C/[C@@]1(C)SC(=O)C(C)=C1O [Thiolactomycin]	119%	–
CCOC(=O)Nc1nc2ccccc2[nH]1	84.1%	–
CCOC(=O)/C=C(C)/C=C/C=C(C)/C=C/c1c(C)cc(OC)c(C)c1C [Etretinate]	91.4 ± 13%	–
NC[C@H]1O[C@H](O[C@H]2[C@H](O)[C@@H](O[C@H]3O[C@H](CO)[C@@H](O)[C@H](N)[C@H]3O)[C@H](N)C[C@@H]2N)[C@H](N)C[C@@H]1O [Tobramycin (free base)]	85.1%	–
NC[C@H]1O[C@H](O[C@H]2[C@H](O)[C@@H](O[C@H]3O[C@H](CO)[C@@H](O)[C@H](N)[C@H]3O)[C@H](N)C[C@@H]2N)[C@H](N)C[C@@H]1O [Tobramycin]	64.9%	–
NC[C@H]1O[C@H](O[C@H]2[C@H](O)[C@@H](O[C@H]3O[C@H](CO)[C@@H](O)[C@H](N)[C@H]3O)[C@H](N)C[C@@H]2N)[C@H](N)C[C@@H]1O	99.4 ± 3.9%	–
COc1cc(-c2cc(=O)c3ccccc3o2)ccc1O	–	59.7
C=CCOc1ccccc1OCC(O)CNC(C)C (configuration not stated) [Oxprenolol hydrochloride]	117%	–
COc1ccc(CC(=O)c2c(O)cc(O)cc2O)cc1O	–	63.4
Cc1c(N)c(=O)n(-c2ccccc2)n1C [Ampyrone]	76.2%	–
Nc1nc2c(cnn2CCc2ccccc2)c2nc(-c3ccco3)nn12	104%	–
OC[C@H]1O[C@@H](n2cnc3c(Cl)ncnc32)[C@H](O)[C@@H]1O [6-Chloropurine riboside]	–	66.6
COc1ccc2c(c1)c(CC(=O)O)c(C)n2C(=O)c1ccccc1 [1-benzoyl-5-methoxy-2-methylindole-3-acetic acid]	97.8%	–
O=c1[nH]ccc2c(O)cccc12 [1,5-Isoquinolinediol]	109%	–
CC(C)(CO)[C@@H](O)C(=O)NCCC(=O)O [Pantothenic acid]	101%	–
CC(C)(CO)[C@@H](O)C(=O)NCCC(=O)O [PANTOTHENIC ACID(d) Na salt]	85.7%	–
Cc1cc(C(C)(C)C)cc(C)c1CC1=NCCN1 [Xylometazoline hydrochloride]	83.6 ± 7.9%	–
Cc1cc(C(C)(C)C)cc(C)c1CC1=NCCN1	83.6%	–
CCN(CC)C(=O)C1(c2ccccc2)CC1CN (configuration not stated) [Milnacipran]	106%	–

SMILES	HMGB1-induced TNF-alpha production (compound concentration: 3 uM)	HMGB1-induced TNF-alpha production [1] [%]
CCN(CCCCOC(=O)c1ccc(OC)c(OC)c1)C(C)Cc1ccc(OC)cc1 (configuration not stated)	86.9%	–
CCN(CCCCOC(=O)c1ccc(OC)c(OC)c1)C(C)Cc1ccc(OC)cc1 (configuration not stated) [Mebeverine hydrochloride]	65.7%	–
O=P(O)(O)C(O)(Cn1ccnc1)P(=O)(O)O [Zoledronic acid]	118%	–
O=C(c1cc(O)c(O)c([N+](=O)[O-])c1)c1ccccc1F	103%	–
CCN(CC)CCOCCOC(=O)C1(c2ccccc2)CCCC1	86.5%	–
CCN(CC)CCOCCOC(=O)C1(c2ccccc2)CCCC1 [Carbetapentane citrate]	76.2 ± 29%	–
C[C@@H]1C[C@H]2[C@@H]3CCC4=CC(=O)C=C[C@]4(C)[C@@]3(F)[C@@H](O)C[C@]2(C)[C@H]1C(=O)CO	52.4%	–
CCN(CC)C(=O)Nc1ccc(OCC(O)CNC(C)(C)C)c(C(C)=O)c1 (configuration not stated) [Celiprolol HCl]	107%	–
O=C(CCBr)N1CCN(C(=O)CCBr)CC1	86.9 ± 5.9%	–
CCCCC1C(=O)N(c2ccccc2)N(c2ccc(O)cc2)C1=O (configuration not stated)	76.3%	–
CCCCC1C(=O)N(c2ccccc2)N(c2ccc(O)cc2)C1=O (configuration not stated) [Oxyphenbutazone]	100%	–
N[C@H]1CONC1=O [L-Cycloserine]	70.5%	–
N[C@H]1CONC1=O [(S)-(-)-Cycloserine]	129%	–
O=c1c(O)c(-c2ccc(O)cc2)oc2cc(O)cc(O)c12 [Kaempferol]	–	62.2
CC(=O)Nc1ccc(OC(=O)c2ccccc2O)cc1	84.4%	–
COc1cc2nc(N3CCN(C(=O)C4COc5ccccc5O4)CC3)nc(N)c2cc1OC (configuration not stated)	73.5%	–
COc1cc2nc(N3CCN(C(=O)C4COc5ccccc5O4)CC3)nc(N)c2cc1OC (configuration not stated) [Doxazosin]	98%	–
COc1cc2nc(N3CCN(C(=O)C4COc5ccccc5O4)CC3)nc(N)c2cc1OC (configuration not stated) [Doxazosin mesylate]	93.2 ± 6.1%	–

3 records picked at random from the list so far, as already listed:
SMILES	HMGB1-induced TNF-alpha production (compound concentration: 3 uM)	HMGB1-induced TNF-alpha production [1] [%]
COC(=O)N/N=C/c1c[n+]([O-])c2ccccc2[n+]1[O-]	99.5%	–
C=C/C(C)=C/[C@@]1(C)SC(=O)C(C)=C1O [Thiolactomycin]	119%	–
CCN(CC)CCOCCOC(=O)C1(c2ccccc2)CCCC1	86.5%	–
